The list is a part of this screen's results and no random one: its compounds were picked by chemical class. Not every dose and run of a compound is shown. T/C: endpoint of the treated group in % of that of the vehicle group. Some entries give survivors of the animals treated and no T/C: the source holds a T/C of zero for them, seemingly a mark for toxic or unscored doses. Survivors were counted at the toxicity check, usually on the fifth day, unless a day is given; later deaths do not show. Schedule codes are those of the source, read here as Q, the interval in days (D) or hours (H), X, the number of doses. For survival time, the PubChem record calls one and a half times the control and up active, and a quarter to a half above the control has no call in these data; cut-offs in other NCI protocols can differ. Some doses were run more than once; the results are listed from low to high. Some T/C values are followed by the survivors on the day toxicity was checked, most often the fifth; where neither a count nor a note follows, no animal had died by that day.
System: L1210 leukemia ip in BDF1 mice, survival T/C
Experiment: NCI In Vivo Anticancer Drug Screen. Data for tumor model L1210 Leukemia (intraperitoneal) in B6D2F1 (BDF1) mice
Details: higher T/C = longer survival

With `COc1ccc(O)c2c(=O)c3c(OC)cc4c(c3oc12)[C@@H]1C=CO[C@@H]1O4` the T/C (T/C endpoint: mean survival time, dose: 2.0 mg/kg/injection, schedule: Q03HX008 (ip), vehicle: Klucel (hydroxypropylcellulose) (HPC)) was 116 % of control, the T/C (T/C endpoint: mean survival time, dose: 2.66 mg/kg/injection, schedule: Q01DX009 (ip), vehicle: saline with Tween-80) was 116 % of control and the T/C (T/C endpoint: mean survival time, dose: 4.0 mg/kg/injection, schedule: Q01DX009 (ip), vehicle: saline with Tween-80) was 121 % of control. The T/C (T/C endpoint: mean survival time, dose: 4.0 mg/kg/injection, schedule: Q03HX008 (ip), vehicle: Klucel (hydroxypropylcellulose) (HPC)) was 135 % of control, the T/C (T/C endpoint: mean survival time, dose: 4.0 mg/kg/injection, schedule: Q03HX016 (ip), vehicle: Klucel (hydroxypropylcellulose) (HPC)) was 125 % of control and the T/C (T/C endpoint: mean survival time, dose: 6.0 mg/kg/injection, schedule: Q01DX009 (ip), vehicle: saline with Tween-80) was 121 % of control. The T/C (T/C endpoint: mean survival time, dose: 8.0 mg/kg/injection, schedule: Q03HX008 (ip), vehicle: Klucel (hydroxypropylcellulose) (HPC)) was 142 % of control, the T/C (T/C endpoint: mean survival time, dose: 8.0 mg/kg/injection, schedule: Q03HX016 (ip), vehicle: Klucel (hydroxypropylcellulose) (HPC)) was 196 % of control and the T/C (T/C endpoint: mean survival time, dose: 8.9 mg/kg/injection, schedule: Q01DX009 (ip), vehicle: saline with Tween-80) was 126 % of control. For the same compound, the T/C (T/C endpoint: mean survival time, dose: 9.0 mg/kg/injection, schedule: Q01DX009 (ip), vehicle: saline with Tween-80) was 133 % of control, the T/C (T/C endpoint: mean survival time, dose: 10.0 mg/kg/injection, schedule: Q01DX009 (ip), vehicle: Klucel (hydroxypropylcellulose) (HPC)) was 108 % of control and the T/C (T/C endpoint: mean survival time, dose: 13.3 mg/kg/injection, schedule: Q01DX009 (ip), vehicle: saline with Tween-80) was 132 % of control. For the same compound, the T/C (T/C endpoint: mean survival time, dose: 14.0 mg/kg/injection, schedule: Q01DX009 (ip), vehicle: Klucel (hydroxypropylcellulose) (HPC)) was 138 % of control, the T/C (T/C endpoint: mean survival time, dose: 16.0 mg/kg/injection, schedule: Q03HX008 (ip), vehicle: Klucel (hydroxypropylcellulose) (HPC)) was 155 % of control and the T/C (T/C endpoint: mean survival time, dose: 16.0 mg/kg/injection, schedule: Q03HX016 (ip), vehicle: Klucel (hydroxypropylcellulose) (HPC)) was 174 % of control. The T/C (T/C endpoint: mean survival time, dose: 16.0 mg/kg/injection, schedule: Q04DX003 (ip), vehicle: Klucel (hydroxypropylcellulose) (HPC)) was 141 % of control, the T/C (T/C endpoint: mean survival time, dose: 20.0 mg/kg/injection, schedule: Q01DX009 (ip), vehicle: Klucel (hydroxypropylcellulose) (HPC)) was 150 % of control and the T/C (T/C endpoint: mean survival time, dose: 20.0 mg/kg/injection, schedule: Q01DX009 (ip), vehicle: saline with Tween-80) was 148 % of control. For the same compound, the T/C (T/C endpoint: mean survival time, dose: 22.0 mg/kg/injection, schedule: Q01DX009 (ip), vehicle: saline with Tween-80) was 153 % of control, the T/C (T/C endpoint: mean survival time, dose: 30.0 mg/kg/injection, schedule: Q01DX009 (ip), vehicle: Klucel (hydroxypropylcellulose) (HPC)) was 146 % of control and the T/C (T/C endpoint: mean survival time, dose: 30.0 mg/kg/injection, schedule: Q01DX009 (ip), vehicle: saline with Tween-80) was 152 % of control. For the same compound, the T/C (T/C endpoint: mean survival time, dose: 32.0 mg/kg/injection, schedule: Q01DX001 (ip), vehicle: Klucel (hydroxypropylcellulose) (HPC)) was 125 % of control, the T/C (T/C endpoint: mean survival time, dose: 32.0 mg/kg/injection, schedule: Q01DX009 (oral), vehicle: Klucel (hydroxypropylcellulose) (HPC)) was 118 % of control and the survivor count (T/C endpoint: mean survival time, dose: 32.0 mg/kg/injection, schedule: Q03HX008 (ip), vehicle: Klucel (hydroxypropylcellulose) (HPC)) was 3 of 6. For the same compound, the survivor count (T/C endpoint: mean survival time, dose: 32.0 mg/kg/injection, schedule: Q03HX016 (ip), vehicle: Klucel (hydroxypropylcellulose) (HPC)) was 1 of 6, the T/C (T/C endpoint: mean survival time, dose: 32.0 mg/kg/injection, schedule: Q04DX003 (ip), vehicle: Klucel (hydroxypropylcellulose) (HPC)) was 166 % of control and the T/C (T/C endpoint: mean survival time, dose: 32.0 mg/kg/injection, schedule: Q08DX002 (ip), vehicle: Klucel (hydroxypropylcellulose) (HPC)) was 138 % of control. The T/C (T/C endpoint: mean survival time, dose: 33.0 mg/kg/injection, schedule: Q01DX009 (ip), vehicle: saline with Tween-80) was 157 % of control, the T/C (T/C endpoint: mean survival time, dose: 44.0 mg/kg/injection, schedule: Q01DX009 (ip), vehicle: Klucel (hydroxypropylcellulose) (HPC)) was 166 % of control and the T/C (T/C endpoint: mean survival time, dose: 50.0 mg/kg/injection, schedule: Q01DX009 (ip), vehicle: saline with Tween-80) was 159 % of control. The T/C (T/C endpoint: mean survival time, dose: 64.0 mg/kg/injection, schedule: Q01DX001 (ip), vehicle: Klucel (hydroxypropylcellulose) (HPC)) was 146 % of control, the T/C (T/C endpoint: mean survival time, dose: 64.0 mg/kg/injection, schedule: Q01DX009 (oral), vehicle: Klucel (hydroxypropylcellulose) (HPC)) was 128 % of control [5 of 6 alive] and the survivor count (T/C endpoint: mean survival time, dose: 64.0 mg/kg/injection, schedule: Q03HX016 (ip), vehicle: Klucel (hydroxypropylcellulose) (HPC)) was 0 of 6. For the same compound, the T/C (T/C endpoint: mean survival time, dose: 64.0 mg/kg/injection, schedule: Q04DX003 (ip), vehicle: Klucel (hydroxypropylcellulose) (HPC)) was 180 % of control, the T/C (T/C endpoint: mean survival time, dose: 64.0 mg/kg/injection, schedule: Q08DX002 (ip), vehicle: Klucel (hydroxypropylcellulose) (HPC)) was 164 % of control and the T/C (T/C endpoint: mean survival time, dose: 66.0 mg/kg/injection, schedule: Q01DX009 (ip), vehicle: Klucel (hydroxypropylcellulose) (HPC)) was 102 % of control. For the same compound, the T/C (T/C endpoint: mean survival time, dose: 75.0 mg/kg/injection, schedule: Q01DX009 (ip), vehicle: saline with Tween-80) was 168 % of control, the T/C (T/C endpoint: mean survival time, dose: 100.0 mg/kg/injection, schedule: Q01DX009 (ip), vehicle: Klucel (hydroxypropylcellulose) (HPC)) was 88 % of control [5 of 6 alive] and the T/C (T/C endpoint: mean survival time, dose: 128.0 mg/kg/injection, schedule: Q01DX001 (ip), vehicle: Klucel (hydroxypropylcellulose) (HPC)) was 158 % of control. The T/C (T/C endpoint: mean survival time, dose: 128.0 mg/kg/injection, schedule: Q01DX009 (oral), vehicle: Klucel (hydroxypropylcellulose) (HPC)) was 124 % of control [5 of 6 alive], the T/C (T/C endpoint: mean survival time, dose: 128.0 mg/kg/injection, schedule: Q04DX003 (ip), vehicle: Klucel (hydroxypropylcellulose) (HPC)) was 166 % of control and the T/C (T/C endpoint: mean survival time, dose: 128.0 mg/kg/injection, schedule: Q08DX002 (ip), vehicle: Klucel (hydroxypropylcellulose) (HPC)) was 177 % of control. The T/C (T/C endpoint: mean survival time, dose: 256.0 mg/kg/injection, schedule: Q01DX001 (ip), vehicle: Klucel (hydroxypropylcellulose) (HPC)) was 160 % of control [5 of 6 alive], the T/C (T/C endpoint: mean survival time, dose: 256.0 mg/kg/injection, schedule: Q01DX009 (oral), vehicle: Klucel (hydroxypropylcellulose) (HPC)) was 131 % of control and the T/C (T/C endpoint: mean survival time, dose: 256.0 mg/kg/injection, schedule: Q04DX003 (ip), vehicle: Klucel (hydroxypropylcellulose) (HPC)) was 103 % of control. The T/C (T/C endpoint: mean survival time, dose: 256.0 mg/kg/injection, schedule: Q08DX002 (ip), vehicle: Klucel (hydroxypropylcellulose) (HPC)) was 122 % of control [4 of 6 alive], the T/C (T/C endpoint: mean survival time, dose: 512.0 mg/kg/injection, schedule: Q01DX001 (ip), vehicle: Klucel (hydroxypropylcellulose) (HPC)) was 172 % of control [4 of 6 alive] and the survivor count (T/C endpoint: mean survival time, dose: 512.0 mg/kg/injection, schedule: Q01DX009 (oral), vehicle: Klucel (hydroxypropylcellulose) (HPC)) was 0 of 6. For the same compound, the survivor count (T/C endpoint: mean survival time, dose: 512.0 mg/kg/injection, schedule: Q08DX002 (ip), vehicle: Klucel (hydroxypropylcellulose) (HPC)) was 2 of 6, the T/C (T/C endpoint: median survival time, dose: 2.0 mg/kg/injection, schedule: Q01DX009 (ip), vehicle: saline) was 110 and 114 % of control and the T/C (T/C endpoint: median survival time, dose: 2.0 mg/kg/injection, schedule: Q03HX024 (ip), vehicle: saline) was 125 % of control. The T/C (T/C endpoint: median survival time, dose: 4.0 mg/kg/injection, schedule: Q01DX009 (ip), vehicle: saline, evaluated on day 30) was 121 and 131 % of control, the T/C (T/C endpoint: median survival time, dose: 4.0 mg/kg/injection, schedule: Q01DX009 (ip), vehicle: saline, evaluated on day 60) was 122 % of control and the T/C (T/C endpoint: median survival time, dose: 4.0 mg/kg/injection, schedule: Q01DX009 (sc), vehicle: saline) was 98 % of control [9 of 10 alive]. For the same compound, the T/C (T/C endpoint: median survival time, dose: 4.0 mg/kg/injection, schedule: Q03HX008 (ip), vehicle: saline) was 114 % of control.

— PubChem BioAssay AID248 (DTP/NCI, 2004)
